Test [1] concerns the target T1, MT-JIP3 (JIP3 R578C), endogenous in patient cells (human (endogenous in patient fibroblasts and patient iPSC-derived neurons)) (UniProt Q9UPT6).
T1 sequence: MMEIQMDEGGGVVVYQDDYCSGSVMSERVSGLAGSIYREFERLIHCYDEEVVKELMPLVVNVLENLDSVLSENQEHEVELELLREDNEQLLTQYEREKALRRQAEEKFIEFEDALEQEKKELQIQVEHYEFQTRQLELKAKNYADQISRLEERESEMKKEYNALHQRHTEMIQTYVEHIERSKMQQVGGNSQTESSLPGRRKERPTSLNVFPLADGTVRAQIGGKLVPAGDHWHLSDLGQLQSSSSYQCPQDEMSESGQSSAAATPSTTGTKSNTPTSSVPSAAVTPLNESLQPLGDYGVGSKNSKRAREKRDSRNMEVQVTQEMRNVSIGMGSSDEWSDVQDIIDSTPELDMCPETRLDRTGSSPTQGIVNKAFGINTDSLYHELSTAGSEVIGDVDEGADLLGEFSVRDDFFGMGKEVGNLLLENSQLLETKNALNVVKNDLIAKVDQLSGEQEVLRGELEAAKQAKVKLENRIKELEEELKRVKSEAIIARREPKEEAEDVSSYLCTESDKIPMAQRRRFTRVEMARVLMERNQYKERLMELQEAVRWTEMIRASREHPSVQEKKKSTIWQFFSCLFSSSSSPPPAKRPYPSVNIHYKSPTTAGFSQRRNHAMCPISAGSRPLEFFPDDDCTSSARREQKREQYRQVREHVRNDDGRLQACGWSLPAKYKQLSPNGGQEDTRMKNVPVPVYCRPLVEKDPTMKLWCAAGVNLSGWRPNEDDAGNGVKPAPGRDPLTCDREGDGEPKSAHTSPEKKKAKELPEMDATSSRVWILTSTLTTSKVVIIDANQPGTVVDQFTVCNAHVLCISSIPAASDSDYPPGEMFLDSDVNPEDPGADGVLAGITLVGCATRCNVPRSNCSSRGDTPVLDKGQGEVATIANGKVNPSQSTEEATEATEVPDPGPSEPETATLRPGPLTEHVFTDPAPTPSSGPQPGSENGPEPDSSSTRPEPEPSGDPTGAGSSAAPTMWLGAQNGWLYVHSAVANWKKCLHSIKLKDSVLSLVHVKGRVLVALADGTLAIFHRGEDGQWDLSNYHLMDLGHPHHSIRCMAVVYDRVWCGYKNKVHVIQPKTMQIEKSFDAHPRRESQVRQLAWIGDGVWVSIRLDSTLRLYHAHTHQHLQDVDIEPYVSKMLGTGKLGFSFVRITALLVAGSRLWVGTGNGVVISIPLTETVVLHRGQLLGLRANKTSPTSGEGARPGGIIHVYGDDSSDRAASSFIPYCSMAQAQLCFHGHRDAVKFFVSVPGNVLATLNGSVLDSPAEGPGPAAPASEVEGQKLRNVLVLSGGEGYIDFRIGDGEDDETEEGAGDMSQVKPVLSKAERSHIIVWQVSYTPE
Nature of the test: co-IP; cell lysates precipitated with JIP3 antibody; D1 and JIP3 by Western blot with D1 and JIP3 antibodies; Figure 5 is on CRISPR control and patient iPSC-derived neurons. (In general: In western blotting, separated proteins are transferred to a membrane and probed.)

Sequences of proteins named here, by UniProt entry; tags and fusion partners are left off.
UniProt P21728: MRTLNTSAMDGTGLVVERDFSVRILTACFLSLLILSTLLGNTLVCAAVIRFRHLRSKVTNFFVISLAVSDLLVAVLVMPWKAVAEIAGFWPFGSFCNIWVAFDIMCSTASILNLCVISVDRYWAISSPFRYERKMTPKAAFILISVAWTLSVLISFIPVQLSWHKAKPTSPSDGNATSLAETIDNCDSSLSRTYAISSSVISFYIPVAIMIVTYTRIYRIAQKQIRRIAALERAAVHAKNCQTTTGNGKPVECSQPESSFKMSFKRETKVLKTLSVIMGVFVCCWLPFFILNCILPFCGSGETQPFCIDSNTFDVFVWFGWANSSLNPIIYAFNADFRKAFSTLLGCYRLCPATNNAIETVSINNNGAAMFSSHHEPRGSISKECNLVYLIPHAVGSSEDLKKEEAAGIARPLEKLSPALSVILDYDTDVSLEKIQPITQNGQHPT

Test [2] has as its target T2, JIP3, endogenous wild type of control cells (human (endogenous in control fibroblasts and CRISPR control iPSC-derived neurons)) (UniProt Q9UPT6).
T2 sequence: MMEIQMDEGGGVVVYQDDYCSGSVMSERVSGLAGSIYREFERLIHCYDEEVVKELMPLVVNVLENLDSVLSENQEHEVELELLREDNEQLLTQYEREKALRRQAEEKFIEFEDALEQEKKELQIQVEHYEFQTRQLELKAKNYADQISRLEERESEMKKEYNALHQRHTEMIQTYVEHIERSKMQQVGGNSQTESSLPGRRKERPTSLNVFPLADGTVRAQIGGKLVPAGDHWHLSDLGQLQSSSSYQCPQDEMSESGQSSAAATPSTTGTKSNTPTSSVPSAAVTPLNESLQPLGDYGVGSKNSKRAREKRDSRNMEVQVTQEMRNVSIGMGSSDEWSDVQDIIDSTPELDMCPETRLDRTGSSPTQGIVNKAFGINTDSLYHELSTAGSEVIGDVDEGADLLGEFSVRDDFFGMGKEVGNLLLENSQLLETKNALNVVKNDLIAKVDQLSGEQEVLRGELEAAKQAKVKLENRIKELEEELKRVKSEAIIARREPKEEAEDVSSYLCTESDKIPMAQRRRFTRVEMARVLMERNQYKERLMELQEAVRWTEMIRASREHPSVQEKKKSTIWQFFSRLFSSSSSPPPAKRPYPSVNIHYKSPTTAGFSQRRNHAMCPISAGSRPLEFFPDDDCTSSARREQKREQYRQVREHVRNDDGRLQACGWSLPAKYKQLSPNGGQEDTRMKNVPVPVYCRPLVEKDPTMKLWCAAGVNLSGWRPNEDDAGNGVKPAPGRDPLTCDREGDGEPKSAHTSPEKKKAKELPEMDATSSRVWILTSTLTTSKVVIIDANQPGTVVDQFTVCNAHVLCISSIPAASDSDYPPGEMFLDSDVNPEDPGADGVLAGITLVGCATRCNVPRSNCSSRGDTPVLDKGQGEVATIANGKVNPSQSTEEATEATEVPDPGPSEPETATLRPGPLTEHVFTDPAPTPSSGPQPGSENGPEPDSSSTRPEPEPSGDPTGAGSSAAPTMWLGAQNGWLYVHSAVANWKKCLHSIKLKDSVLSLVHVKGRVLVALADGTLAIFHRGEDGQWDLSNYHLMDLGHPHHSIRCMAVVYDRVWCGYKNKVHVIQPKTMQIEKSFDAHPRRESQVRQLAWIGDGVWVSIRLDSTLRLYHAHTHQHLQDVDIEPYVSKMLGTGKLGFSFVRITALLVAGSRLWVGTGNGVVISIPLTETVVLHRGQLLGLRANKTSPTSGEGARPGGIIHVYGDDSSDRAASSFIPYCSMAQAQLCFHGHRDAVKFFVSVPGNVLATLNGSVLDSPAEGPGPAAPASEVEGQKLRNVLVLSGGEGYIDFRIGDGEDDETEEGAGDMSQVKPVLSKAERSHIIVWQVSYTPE
The description is as above.

These are yes or no findings as the source states them, for the method shown. Binding seen in cells or lysates may run through a third protein. Some entries that bind do so weakly or less than the wild type.

In the case of “dopamine receptor 1 (D1) (from UniProt P21728 1-446)”, the binding result in test [1] and in test [2] was “binds” each time.

The record behind these values is paper PMC12016931.
